In patent publication US20260183295A1, “METHODS AND COMPOSITIONS FOR TREATING CANCER” (Onconova Therapeutics, Inc., priority 2022, published 2026):

Tested on: MDA-MB-231 cells
Assay: Phosphoproteomic analysis, number of deregulated phosphopeptides
Format: cell-based
Details: 5 μM, 2 hours
[1] = specific to the treatment (FIG. 6 Venn diagram)

**Q.** How did the “phosphopeptides downregulated when treated with Compound 1 or Comparator 1” value (shared by both treatments) turn out when `CN1CCN(c2ccc(Nc3ncc4cc(C#N)c(=O)n(C5CCCC5)c4n3)cc2)CC1` [Compound 1, 8-cyclopentyl-2-((4-(4-methylpiperazin-1-yl)phenyl)amino)-7-oxo-7,8-dihydropyrido[2,3-d]pyrimidine-6-carbonitrile] was run?
**A.** 80

**Q.** And the “phosphopeptides upregulated when treated with Compound 1 or Comparator 1” value (shared by both treatments)?
**A.** 1

**Q.** What about the phosphopeptides downregulated [1] of the same molecule?
**A.** 350

**Q.** And the phosphopeptides upregulated [1]?
**A.** 155
